Non-standard residues stand in square brackets, D forms with d. No end group written: not given here. Aib = CC(C)(N)C(=O)O

Drawing on patent publication US20050090649 (published 2005), this text covers crude yield for two substances.

The series is described as follows: general procedure: Fmoc solid-phase peptide synthesis in flow. As to conditions: whole synthesis, based on the level of substitution of the resin.

Consider “Arg-Pro-Lys-Pro-Gln-Gln-Phe-Phe-Gly-Leu-Met-Gly-Gly-Gin-Gin-Cys-Thr-Ile-Cys-Gly-Ala-Pro-Aib-Ser-Ile-Ile-NH2”, for which the crude yield is listed as 80%.
Then “CGGQQCTICGAP[Aib]SII-NH2 (cysteine pairing not given here)”, with 85%.
